Source: the supplement of paper PMC10849652
The other results are listed elsewhere or left out.

Protein sequences, listed by entry. Tags and fused reporters are not part of them. Lines headed by an entry give the natural chain unless they say otherwise; changes in a name come on top.
UniProt O14893: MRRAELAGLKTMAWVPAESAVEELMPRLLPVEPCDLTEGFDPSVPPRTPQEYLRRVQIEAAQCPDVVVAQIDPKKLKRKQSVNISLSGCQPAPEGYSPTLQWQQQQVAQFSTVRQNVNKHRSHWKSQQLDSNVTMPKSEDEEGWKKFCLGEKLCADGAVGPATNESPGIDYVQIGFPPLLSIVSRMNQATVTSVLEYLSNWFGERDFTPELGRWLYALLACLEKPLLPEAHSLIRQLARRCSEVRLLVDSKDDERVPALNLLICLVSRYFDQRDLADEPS
UniProt Q8N2G8: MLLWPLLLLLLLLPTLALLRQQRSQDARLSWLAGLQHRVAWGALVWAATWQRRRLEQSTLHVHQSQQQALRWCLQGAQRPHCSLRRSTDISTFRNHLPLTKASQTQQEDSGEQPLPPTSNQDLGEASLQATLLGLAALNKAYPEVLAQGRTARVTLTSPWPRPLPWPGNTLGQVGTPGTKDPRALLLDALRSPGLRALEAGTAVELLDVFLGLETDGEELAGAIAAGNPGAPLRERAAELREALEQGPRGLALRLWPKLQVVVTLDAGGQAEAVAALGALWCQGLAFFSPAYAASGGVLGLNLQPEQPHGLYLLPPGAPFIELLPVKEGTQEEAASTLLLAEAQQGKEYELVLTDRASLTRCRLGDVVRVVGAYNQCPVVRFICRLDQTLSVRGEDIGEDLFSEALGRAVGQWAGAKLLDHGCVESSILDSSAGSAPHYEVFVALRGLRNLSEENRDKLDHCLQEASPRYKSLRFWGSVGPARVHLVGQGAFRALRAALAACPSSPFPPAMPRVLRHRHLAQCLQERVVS
UniProt P54803: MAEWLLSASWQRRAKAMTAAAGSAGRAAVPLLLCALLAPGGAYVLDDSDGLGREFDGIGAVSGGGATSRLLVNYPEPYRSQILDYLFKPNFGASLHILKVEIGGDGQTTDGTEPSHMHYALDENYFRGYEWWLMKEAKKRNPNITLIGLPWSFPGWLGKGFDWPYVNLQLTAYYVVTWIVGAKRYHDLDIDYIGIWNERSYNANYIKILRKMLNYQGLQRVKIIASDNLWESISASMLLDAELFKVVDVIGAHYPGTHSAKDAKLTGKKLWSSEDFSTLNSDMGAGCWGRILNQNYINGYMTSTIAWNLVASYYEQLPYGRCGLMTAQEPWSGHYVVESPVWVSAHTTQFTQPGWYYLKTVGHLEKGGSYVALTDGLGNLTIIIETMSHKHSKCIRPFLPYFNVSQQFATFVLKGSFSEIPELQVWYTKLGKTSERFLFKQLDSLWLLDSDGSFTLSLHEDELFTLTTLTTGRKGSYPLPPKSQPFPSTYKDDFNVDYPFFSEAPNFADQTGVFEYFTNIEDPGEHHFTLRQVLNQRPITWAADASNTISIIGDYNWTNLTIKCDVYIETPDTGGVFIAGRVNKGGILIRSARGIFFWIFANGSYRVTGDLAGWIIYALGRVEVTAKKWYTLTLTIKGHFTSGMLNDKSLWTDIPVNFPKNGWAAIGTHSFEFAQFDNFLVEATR
UniProt Q10472: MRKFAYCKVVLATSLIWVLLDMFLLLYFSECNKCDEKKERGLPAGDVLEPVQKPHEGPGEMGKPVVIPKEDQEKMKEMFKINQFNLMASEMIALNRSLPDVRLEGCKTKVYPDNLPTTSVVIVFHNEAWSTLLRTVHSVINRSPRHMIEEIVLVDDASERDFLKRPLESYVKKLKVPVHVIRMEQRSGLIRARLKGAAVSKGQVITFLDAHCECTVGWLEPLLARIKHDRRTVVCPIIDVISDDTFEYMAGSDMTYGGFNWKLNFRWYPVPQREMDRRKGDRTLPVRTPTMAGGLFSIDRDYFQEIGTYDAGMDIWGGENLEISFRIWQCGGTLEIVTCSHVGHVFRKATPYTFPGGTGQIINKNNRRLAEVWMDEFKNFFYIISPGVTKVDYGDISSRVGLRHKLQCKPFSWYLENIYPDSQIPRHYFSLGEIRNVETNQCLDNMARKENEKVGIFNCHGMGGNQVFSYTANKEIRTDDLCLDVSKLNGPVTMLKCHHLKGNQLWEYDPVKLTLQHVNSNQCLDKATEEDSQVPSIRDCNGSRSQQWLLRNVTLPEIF
UniProt P31150: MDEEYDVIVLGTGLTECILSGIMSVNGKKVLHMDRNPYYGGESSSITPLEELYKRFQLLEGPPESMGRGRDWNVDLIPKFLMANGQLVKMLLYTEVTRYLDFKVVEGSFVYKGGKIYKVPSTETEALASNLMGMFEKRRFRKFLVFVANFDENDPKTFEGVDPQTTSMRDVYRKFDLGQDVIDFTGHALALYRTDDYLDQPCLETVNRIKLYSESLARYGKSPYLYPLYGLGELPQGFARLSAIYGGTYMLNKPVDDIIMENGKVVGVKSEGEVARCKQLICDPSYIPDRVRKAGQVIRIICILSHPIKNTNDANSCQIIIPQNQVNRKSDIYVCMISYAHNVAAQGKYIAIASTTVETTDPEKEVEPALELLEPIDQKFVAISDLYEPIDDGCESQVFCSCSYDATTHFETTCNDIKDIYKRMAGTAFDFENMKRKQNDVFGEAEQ
UniProt Q8IWJ2: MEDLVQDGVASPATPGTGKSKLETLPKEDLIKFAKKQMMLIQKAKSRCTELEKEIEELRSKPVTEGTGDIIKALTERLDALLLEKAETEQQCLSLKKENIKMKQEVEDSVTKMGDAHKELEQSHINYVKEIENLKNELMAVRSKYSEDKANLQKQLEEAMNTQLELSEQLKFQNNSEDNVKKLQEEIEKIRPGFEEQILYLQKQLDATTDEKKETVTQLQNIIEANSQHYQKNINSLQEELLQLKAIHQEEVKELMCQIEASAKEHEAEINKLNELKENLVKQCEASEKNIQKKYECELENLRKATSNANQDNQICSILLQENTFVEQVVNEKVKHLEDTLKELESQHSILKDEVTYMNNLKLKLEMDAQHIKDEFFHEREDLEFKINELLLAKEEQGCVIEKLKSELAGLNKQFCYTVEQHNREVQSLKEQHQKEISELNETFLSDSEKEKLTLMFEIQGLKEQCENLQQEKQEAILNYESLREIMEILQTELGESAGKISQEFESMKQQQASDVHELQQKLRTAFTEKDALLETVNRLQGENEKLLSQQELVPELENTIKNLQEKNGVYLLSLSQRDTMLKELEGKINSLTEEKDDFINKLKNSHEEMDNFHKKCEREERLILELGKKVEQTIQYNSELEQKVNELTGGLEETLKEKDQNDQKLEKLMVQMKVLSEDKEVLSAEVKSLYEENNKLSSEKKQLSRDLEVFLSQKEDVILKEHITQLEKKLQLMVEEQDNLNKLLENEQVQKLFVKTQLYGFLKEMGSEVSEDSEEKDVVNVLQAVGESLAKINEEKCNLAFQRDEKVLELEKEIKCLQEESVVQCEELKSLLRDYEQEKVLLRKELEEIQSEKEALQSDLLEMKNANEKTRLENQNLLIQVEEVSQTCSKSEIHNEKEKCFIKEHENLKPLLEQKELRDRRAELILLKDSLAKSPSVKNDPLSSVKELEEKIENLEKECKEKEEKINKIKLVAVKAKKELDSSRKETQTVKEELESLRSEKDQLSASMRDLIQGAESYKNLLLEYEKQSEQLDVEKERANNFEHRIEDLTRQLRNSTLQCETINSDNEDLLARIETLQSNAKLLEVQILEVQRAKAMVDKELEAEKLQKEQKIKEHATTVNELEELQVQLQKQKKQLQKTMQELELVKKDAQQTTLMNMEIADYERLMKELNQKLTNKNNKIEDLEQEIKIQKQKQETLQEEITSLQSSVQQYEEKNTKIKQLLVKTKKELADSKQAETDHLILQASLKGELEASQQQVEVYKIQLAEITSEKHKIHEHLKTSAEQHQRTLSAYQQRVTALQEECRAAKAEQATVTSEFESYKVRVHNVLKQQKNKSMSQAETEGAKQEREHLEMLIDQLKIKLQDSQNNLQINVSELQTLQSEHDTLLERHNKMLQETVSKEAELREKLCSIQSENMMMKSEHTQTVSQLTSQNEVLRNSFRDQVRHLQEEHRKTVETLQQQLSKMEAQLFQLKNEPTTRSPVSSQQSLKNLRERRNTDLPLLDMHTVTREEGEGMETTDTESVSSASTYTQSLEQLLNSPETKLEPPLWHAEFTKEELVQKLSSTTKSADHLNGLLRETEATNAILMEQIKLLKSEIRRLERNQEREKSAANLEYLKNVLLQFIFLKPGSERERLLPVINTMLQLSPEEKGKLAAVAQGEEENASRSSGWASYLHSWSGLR
UniProt Q8NCW6: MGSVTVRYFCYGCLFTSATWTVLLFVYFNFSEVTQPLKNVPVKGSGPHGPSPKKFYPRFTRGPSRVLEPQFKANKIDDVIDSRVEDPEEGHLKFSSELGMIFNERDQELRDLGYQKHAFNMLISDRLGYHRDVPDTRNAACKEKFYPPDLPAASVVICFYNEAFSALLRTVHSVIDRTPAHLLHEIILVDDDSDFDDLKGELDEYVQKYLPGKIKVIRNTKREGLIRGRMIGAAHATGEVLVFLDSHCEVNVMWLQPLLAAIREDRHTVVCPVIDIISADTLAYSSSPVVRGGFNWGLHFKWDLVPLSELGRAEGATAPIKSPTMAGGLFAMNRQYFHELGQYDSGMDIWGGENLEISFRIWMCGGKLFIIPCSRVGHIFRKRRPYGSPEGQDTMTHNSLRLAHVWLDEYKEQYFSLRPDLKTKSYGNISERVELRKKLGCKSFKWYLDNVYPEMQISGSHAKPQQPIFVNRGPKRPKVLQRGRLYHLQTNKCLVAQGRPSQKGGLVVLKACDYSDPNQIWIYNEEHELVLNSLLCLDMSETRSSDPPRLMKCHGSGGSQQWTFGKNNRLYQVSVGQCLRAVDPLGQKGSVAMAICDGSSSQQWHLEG
UniProt P15407: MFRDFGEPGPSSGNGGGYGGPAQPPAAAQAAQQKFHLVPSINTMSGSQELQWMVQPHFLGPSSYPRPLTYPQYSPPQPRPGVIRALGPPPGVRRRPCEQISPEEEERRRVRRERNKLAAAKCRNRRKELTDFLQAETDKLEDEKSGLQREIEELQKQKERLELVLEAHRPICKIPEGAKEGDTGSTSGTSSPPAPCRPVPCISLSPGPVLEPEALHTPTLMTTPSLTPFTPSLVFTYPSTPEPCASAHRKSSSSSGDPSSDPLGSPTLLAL
UniProt Q05932: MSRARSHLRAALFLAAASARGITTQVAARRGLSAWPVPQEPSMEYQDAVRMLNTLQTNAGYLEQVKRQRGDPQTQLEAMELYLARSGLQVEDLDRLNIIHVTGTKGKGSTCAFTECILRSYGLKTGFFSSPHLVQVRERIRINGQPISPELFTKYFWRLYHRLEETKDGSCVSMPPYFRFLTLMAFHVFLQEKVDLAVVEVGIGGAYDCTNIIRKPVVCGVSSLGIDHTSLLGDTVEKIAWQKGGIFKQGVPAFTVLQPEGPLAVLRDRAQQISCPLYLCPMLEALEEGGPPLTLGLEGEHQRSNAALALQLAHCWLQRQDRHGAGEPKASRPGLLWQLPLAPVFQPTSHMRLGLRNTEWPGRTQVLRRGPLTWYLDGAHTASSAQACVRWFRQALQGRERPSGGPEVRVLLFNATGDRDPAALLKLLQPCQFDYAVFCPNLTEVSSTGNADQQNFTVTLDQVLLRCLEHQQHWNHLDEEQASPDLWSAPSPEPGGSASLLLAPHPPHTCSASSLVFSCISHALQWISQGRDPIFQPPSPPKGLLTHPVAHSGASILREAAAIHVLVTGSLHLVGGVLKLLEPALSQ
UniProt P85037: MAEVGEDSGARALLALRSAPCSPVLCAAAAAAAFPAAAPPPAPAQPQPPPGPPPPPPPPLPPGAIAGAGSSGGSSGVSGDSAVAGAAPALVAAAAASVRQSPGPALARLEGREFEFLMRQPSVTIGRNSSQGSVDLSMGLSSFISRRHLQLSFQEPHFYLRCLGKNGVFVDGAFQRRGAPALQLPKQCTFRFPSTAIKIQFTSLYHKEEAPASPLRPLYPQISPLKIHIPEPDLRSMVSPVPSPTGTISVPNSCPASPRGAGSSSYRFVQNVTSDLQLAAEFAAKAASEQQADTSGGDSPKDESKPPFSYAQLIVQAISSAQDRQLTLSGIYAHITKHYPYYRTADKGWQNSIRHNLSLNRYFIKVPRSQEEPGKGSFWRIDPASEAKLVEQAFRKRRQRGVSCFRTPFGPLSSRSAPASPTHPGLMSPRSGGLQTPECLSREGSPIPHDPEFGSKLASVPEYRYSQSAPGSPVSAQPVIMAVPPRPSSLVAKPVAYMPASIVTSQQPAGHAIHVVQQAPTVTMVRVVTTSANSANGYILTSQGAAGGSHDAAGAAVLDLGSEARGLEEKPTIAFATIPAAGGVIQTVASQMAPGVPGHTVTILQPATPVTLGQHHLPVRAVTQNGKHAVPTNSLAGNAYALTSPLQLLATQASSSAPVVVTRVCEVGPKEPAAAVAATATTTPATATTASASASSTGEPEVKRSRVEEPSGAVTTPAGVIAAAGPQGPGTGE
UniProt Q96NB1: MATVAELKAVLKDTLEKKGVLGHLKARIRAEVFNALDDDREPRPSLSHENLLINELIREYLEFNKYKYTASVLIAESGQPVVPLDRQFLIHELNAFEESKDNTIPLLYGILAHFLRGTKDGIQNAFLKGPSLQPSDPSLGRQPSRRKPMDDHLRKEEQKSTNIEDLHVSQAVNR

compound: Cc1ccc(C(=O)N(CCCN)[C@@H](c2nc3cc(Cl)ccc3c(=O)n2Cc2ccccc2)C(C)C)cc1 [ispinesib]; assay: log2 fold change, soluble protein after heating vs DMSO (PISA); higher = thermal stabilisation; K562 cells, 10 uM, 30 min; active = over 0.2 and 3.5 SD of the protein, either way, in both replicates (recomputed)
Outline: (§1)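 K562 cells at 2×10^6 cells/mL were treated for 30 min with 10 μM compound, and aliquots were heated for 3 min over 48°C-58°C before pooling. Extraction used PBS with 0.5% NP-40 at 4°C, and soluble protein was the supernatant after 21,000xg for 90 min, measured by TMTpro 16plex LC-MS/MS with channel sums equalised. Thermal stability values, relative to control samples and from duplicates, are log2 fold changes.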

Row | Target | log2 fold change
1 | GCDH (UniProt Q92947) | inactive: 0.041
2 | GDPD1 (UniProt Q8N9F7) | active: 0.353
3 | GEMIN2 (UniProt O14893) | inactive: -0.149
4 | GABPA (UniProt Q06546) | inactive: -0.099
5 | GARS1 (UniProt H7C443) | inactive: -0.216
6 | GATD1 (UniProt Q8NB37) | inactive: -0.005
7 | GHDC (UniProt Q8N2G8) | inactive: -0.132
8 | GGT7 (UniProt Q9UJ14) | inactive: -0.032
9 | GALC (UniProt P54803) | inactive: -0.135
10 | GALNT1 (UniProt Q10472) | inactive: 0.048
11 | GABARAPL1 isoform 2 (UniProt Q9H0R8) | active: -0.315
12 | GEMIN5 (UniProt Q8TEQ6) | inactive: -0.088
13 | GDI1 (UniProt P31150) | inactive: 0.084
14 | GALNT2 (UniProt Q10471) | inactive: 0.034
15 | GCC2 (UniProt Q8IWJ2) | inactive: -0.173
16 | GATA1 (UniProt P15976) | inactive: -0.063
17 | GAGE12F (UniProt P0CL80) | inactive: 0.009
18 | FUCA2 (UniProt Q9BTY2) | inactive: -0.001
19 | GBF1 (UniProt Q92538) | inactive: 0.012

compound: Cc1ccc(NC(=O)c2ccc(CN3CC[C@H](N(C)C)C3)c(C(F)(F)F)c2)cc1Nc1nccc(-c2cncnc2)n1 [bafetinib]; assay: as above
Outline: as §1

Row | Target | log2 fold change
20 | GALNT11 (UniProt Q8NCW6) | inactive: -0.055
21 | GEMIN6 (UniProt Q8WXD5) | inactive: -0.011
22 | GALNT10 (UniProt Q86SR1) | inactive: -0.124
23 | FOSL1 (UniProt P15407) | inactive: -0.105
24 | GALNT4 (UniProt Q8N4A0) | inactive: -0.042
25 | FNTB (UniProt P49356) | inactive: 0.028
26 | FPGS (UniProt Q05932) | inactive: -0.078
27 | FOXK1 (UniProt P85037) | inactive: 0.03
28 | GAPVD1 isoform 6 (UniProt Q14C86) | inactive: 0.023
29 | FUCA1 (UniProt P04066) | active: -1.16
30 | GCSH (UniProt P23434) | inactive: -0.13
31 | GCLM (UniProt P48507) | inactive: 0.016
32 | GALK1 isoform 2 (UniProt P51570) | inactive: 0.061
33 | GCDH (UniProt Q92947) | inactive: -0.047
34 | GDPD1 (UniProt Q8N9F7) | inactive: 0.088
35 | GEMIN2 (UniProt O14893) | inactive: -0.154

Row | Target | log2 fold change
36 | GABPA (UniProt Q06546) | inactive: -0.036
37 | GATD1 (UniProt Q8NB37) | inactive: 0.008
38 | GHDC (UniProt Q8N2G8) | inactive: -0.165
39 | GGT7 (UniProt Q9UJ14) | inactive: -0.081
40 | GALC (UniProt P54803) | active: -0.507
41 | GALNT1 (UniProt Q10472) | inactive: -0.053
42 | GABARAPL1 isoform 2 (UniProt Q9H0R8) | inactive: -0.171
43 | GEMIN5 (UniProt Q8TEQ6) | inactive: 0.015
44 | FOPNL (UniProt Q96NB1) | inactive: -0.068
45 | GDI1 (UniProt P31150) | inactive: 0.002
46 | GALNT2 (UniProt Q10471) | inactive: -0.046
47 | GCC2 (UniProt Q8IWJ2) | inactive: 0.033
48 | GATA1 (UniProt P15976) | inactive: -0.09
49 | GAGE12F (UniProt P0CL80) | inactive: -0.092
50 | FUCA2 (UniProt Q9BTY2) | active: -0.809
51 | GBF1 (UniProt Q92538) | inactive: 0.014
